Results reported in US20220378827A1 (EMORY UNIVERSITY, published 2022).
No constants are given. Whether binding was seen depends on the method and setting. Some results given as binding are weak or reduced against the parent protein; the word gives no strength.

Protein sequences, listed by entry. Tags and fused reporters are not part of them. Residues count along the entry.
UniProt P06127, residues 25-372: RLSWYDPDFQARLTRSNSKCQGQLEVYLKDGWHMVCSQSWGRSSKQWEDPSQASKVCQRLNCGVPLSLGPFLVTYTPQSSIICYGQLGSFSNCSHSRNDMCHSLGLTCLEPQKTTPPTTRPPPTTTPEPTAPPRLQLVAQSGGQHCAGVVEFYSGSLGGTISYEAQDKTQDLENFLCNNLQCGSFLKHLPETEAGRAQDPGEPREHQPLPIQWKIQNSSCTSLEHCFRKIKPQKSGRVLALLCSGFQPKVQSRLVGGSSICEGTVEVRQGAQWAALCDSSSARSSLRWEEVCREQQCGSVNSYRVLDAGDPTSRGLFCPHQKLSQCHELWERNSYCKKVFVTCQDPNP

Target: CD5-Fc fusion protein (UniProt P06127)
Test: flow cytometry; CD5-NSCAR-transduced Jurkat T cells stained with CD5-Fc and secondary anti-IgG Fc antibody

B1: CD5-NSCAR (CD5 scFv non-signaling chimeric antigen receptor) (other)
chain: GAPEIQLVQSGGGLVKPGGSVRISCAASGYTFTNYGMNWVRQAPGKGLEWMGWINTHTGEPTYADSFKGRFTFSLDDSKNTAYLQINSLRAEDTAVYFCTRRGYDWYFDVWGQGTTVTVSSGGGGSGGGGSGGGGSDIQMTQSPSSLSASVGDRVTITCRASQDINSYLSWFQQKPGKAPKTLIYRANRLESGVPSRFSGSGSGTDYTLTISSLQYEDFGIYYCQQYDESPWTFGGGTKLEIKASEQKLISEEDLDNEKSNGTIIHVKGKHLCPSPLFPGPSKPFWVLVVVGGVLACYSLLVTVAFIIFWVRSEWPGKVR
binding: binds
